Results as given in paper PMC7594953 (Acta Pharmacologica Sinica, 2020).

Legend:
SARS2-S pseudovirus [1] = assay: microbe, parasite or virus in culture; conditions: Huh-7, 48 h; for EC50: read-out: SARS2-S pseudovirus EC50
VSV-G pseudovirus = assay: microbe, parasite or virus in culture; type: cell-based; conditions: Huh-7, read-out: VSV-G pseudovirus EC50
SARS-CoV S pseudovirus = assay: microbe, parasite or virus in culture; type: cell-based; conditions: Severe acute respiratory syndrome coronavirus; for EC50: Huh-7, read-out: SARS-CoV S pseudovirus EC50
SARS-CoV-2 (WIV04) = type: cell-based
in vitro = conditions: human
SARS-CoV-2 = conditions: read-out: EC50 of clemastine by viral NP staining method; cited from earlier work
SARS2-S pseudovirus [2] = assay: in vitro; conditions: human

Structure (SMILES) | EC50 (SARS2-S pseudovirus [1]) [nM] | EC50 (VSV-G pseudovirus) [µM] | EC50 (SARS-CoV S pseudovirus) [nM] | Activity against native SARS-CoV-2 replication (in words) (SARS-CoV-2 (WIV04)) | EC90 (SARS2-S pseudovirus [1]; read-out: SARS2-S pseudovirus EC90) [µM] | CC50 (in vitro; Huh7 CC50) [µM] | CC50 (in vitro; Huh-7 CC50) [µM] | EC50 (SARS-CoV-2) [nM] | EC90 (SARS-CoV S pseudovirus; Huh-7, read-out: SARS-CoV S pseudovirus EC90) [µM] | selectivity ratio (SARS2-S pseudovirus [2])
CCCCc1oc2ccccc2c1C(=O)c1cc(I)c(OCCN(CC)CC)c(I)c1 [Amiodarone] | 210 | 11.3 | 600 ± 370 |  |  |  |  |  |  | 
CN1CCC[C@@H]1CCO[C@](C)(c1ccccc1)c1ccc(Cl)cc1 [Clemastine] | 810 | 10.5 | 1790 ± 320 | significantly inhibited SARS2 replication | 4.34 | 5.9 | 6.6 ± 1.48 | ~2300 | 12.4 ± 1.24 | 7.96
